According to publication PMC4705653:
No constants are given. Whether binding was seen depends on the method and setting. For some assays here: In cells and extracts the contact can be indirect. Some results given as binding are weak or reduced against the parent protein; the word gives no strength.

Chains of the proteins cited; added tags and fusions are not shown.
UniProt P06243: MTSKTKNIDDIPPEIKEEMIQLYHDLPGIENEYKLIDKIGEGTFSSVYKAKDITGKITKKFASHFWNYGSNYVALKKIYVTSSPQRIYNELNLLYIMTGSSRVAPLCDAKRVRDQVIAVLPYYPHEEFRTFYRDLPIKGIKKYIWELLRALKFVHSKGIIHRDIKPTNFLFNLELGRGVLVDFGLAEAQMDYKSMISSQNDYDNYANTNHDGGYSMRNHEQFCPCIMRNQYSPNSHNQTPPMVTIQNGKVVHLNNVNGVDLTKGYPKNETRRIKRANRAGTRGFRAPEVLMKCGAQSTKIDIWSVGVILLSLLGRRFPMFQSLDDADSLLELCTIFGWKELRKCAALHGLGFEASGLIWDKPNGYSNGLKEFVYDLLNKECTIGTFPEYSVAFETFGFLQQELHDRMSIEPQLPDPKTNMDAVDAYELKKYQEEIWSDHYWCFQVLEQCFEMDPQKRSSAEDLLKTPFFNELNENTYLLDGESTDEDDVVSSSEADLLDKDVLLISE
UniProt P29469: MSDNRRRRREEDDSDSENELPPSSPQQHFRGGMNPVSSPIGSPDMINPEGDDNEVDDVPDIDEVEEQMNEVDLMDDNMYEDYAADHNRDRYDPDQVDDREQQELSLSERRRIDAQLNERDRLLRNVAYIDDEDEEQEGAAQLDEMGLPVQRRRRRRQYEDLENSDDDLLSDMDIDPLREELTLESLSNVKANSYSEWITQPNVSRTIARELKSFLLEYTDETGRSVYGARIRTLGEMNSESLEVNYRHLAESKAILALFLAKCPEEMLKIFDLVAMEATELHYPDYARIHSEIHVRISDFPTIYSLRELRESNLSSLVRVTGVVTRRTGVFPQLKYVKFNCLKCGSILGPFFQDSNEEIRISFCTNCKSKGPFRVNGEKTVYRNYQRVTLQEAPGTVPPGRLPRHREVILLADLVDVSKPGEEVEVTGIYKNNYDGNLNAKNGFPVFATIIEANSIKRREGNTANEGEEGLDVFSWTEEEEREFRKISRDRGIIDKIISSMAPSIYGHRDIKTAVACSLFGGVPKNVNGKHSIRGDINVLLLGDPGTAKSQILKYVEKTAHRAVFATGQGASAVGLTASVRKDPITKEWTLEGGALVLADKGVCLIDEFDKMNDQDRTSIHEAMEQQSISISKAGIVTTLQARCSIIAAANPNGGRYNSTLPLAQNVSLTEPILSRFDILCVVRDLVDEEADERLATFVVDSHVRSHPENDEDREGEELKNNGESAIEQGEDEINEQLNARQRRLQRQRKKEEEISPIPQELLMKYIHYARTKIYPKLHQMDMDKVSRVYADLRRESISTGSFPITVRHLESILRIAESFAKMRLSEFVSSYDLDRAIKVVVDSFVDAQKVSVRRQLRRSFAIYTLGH
UniProt P32354: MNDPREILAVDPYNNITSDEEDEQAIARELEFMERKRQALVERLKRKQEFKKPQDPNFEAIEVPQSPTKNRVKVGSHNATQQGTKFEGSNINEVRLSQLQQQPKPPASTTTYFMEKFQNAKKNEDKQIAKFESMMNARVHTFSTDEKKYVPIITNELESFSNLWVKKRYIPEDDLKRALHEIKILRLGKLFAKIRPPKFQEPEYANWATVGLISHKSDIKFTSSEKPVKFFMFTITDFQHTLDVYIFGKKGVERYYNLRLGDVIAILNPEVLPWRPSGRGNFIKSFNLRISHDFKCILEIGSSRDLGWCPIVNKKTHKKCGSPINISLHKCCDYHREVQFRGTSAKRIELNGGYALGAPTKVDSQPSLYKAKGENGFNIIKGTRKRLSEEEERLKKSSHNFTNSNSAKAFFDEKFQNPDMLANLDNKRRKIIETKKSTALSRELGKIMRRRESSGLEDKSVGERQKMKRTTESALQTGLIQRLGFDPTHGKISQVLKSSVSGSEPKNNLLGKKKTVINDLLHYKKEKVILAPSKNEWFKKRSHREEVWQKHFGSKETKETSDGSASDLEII
UniProt P22336: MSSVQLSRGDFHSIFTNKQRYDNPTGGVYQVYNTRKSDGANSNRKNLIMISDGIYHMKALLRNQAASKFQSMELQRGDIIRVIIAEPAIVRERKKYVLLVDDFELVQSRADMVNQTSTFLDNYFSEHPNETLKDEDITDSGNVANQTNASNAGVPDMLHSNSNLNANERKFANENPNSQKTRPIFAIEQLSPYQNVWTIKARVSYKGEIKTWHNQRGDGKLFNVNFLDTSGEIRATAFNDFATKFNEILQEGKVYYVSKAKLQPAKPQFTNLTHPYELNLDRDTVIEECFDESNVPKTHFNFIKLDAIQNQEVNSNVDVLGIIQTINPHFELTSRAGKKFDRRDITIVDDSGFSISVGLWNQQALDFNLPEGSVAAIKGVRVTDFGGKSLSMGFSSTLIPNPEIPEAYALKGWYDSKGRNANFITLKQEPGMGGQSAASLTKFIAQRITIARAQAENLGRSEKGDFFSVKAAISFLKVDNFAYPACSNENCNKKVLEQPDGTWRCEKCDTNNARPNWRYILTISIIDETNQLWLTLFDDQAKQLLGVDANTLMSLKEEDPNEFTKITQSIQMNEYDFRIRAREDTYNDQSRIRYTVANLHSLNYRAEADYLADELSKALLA

Columns and labels:
GST-Cdc7 (budding yeast) = GST-Cdc7 (budding yeast) (UniProt P06243); test: pull-down; 30 pmol GST-tagged protein on Glutathione Sepharose, varying concentrations of 32P-labelled PKA-tagged protein in solution; GST binding buffer (40 mM Tris–HCl pH 7.5, 100 mM NaCl, 0.1 mM EDTA, 10% glycerol, 0.1% Triton X-100, 1 mM DTT, 0.1 mg/ml BSA), 100 μl, 30°C, 10 min; SDS-PAGE and phosphorimaging; in some panels with 5 mM ATP or ATPγS, or with a third labelled protein (Mcm10, Sld3) added; both purified
[1] = biological target: Mcm2 (endogenous, precipitated with anti-Mcm2; read by the paper as the loaded Mcm2–7 complex) (budding yeast (endogenous in mcm10-1-aid cells)) (UniProt P29469); test: co-IP; mcm10-1-aid cells released from G1 (α-factor) into S phase at 25°C, with or without auxin (Mcm10 depletion); extracts treated with Benzonase, no cross-linker, no hydroxyurea; precipitated with anti-Mcm2, western blot of the partner

Row | Substance | binding (GST-Cdc7 (budding yeast)) | binding [1]
1 | PKA-Mcm10 (radiolabeled) (from UniProt P32354 1-571) | binds weakly | 
2 | Rfa1–5FLAG (from UniProt P22336 1-621) |  | binds
